The source of these data is patent US20220372138A1.

Positions count from the first letter of the chain named. These are yes or no findings as the source states them, for the method shown. Some entries that bind do so weakly or less than the wild type.

In one assay the target is Streptavidin (UniProt P22629). Briefly: scFv ELISA.
For assay [1], the target named is human IGSF11 (VSIG3) expressed on cells (human) (UniProt Q5DX21). Briefly: FACS >50% cells.
A further assay addresses T1, IGSF11-hFc (human) (UniProt Q5DX21).
T1 sequence: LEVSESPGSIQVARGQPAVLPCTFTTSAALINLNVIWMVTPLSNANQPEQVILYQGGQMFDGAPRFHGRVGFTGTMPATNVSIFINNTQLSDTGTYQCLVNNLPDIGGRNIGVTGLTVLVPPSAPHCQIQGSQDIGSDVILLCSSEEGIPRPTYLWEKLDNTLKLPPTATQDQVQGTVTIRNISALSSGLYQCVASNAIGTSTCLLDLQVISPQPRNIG
Briefly: IgG1 ELISA EC50 <1 nM.

The target of assay [2] is human IGSF11 (VSIG3) expressed on cells (human) (UniProt Q5DX21). Briefly: FACS 35-50% cells.
Assay [3] shares this target. As to the kind of experiment: FACS MFI<100.
For assay [4], the target named is human IGSF11 (VSIG3) ECD, His-tagged (human) (UniProt Q5DX21). As to the kind of experiment: blocking ELISA: VSIR-Fc immobilised, IgG dilution series pre-incubated with 200 nM IGSF11 ECD-His, bound IGSF11 detected with anti-His-HRP. (In general: In an ELISA, binding on a coated surface is turned into a signal by an enzyme label.)
Assay [5] shares this target. As to the kind of experiment: ELISA: IGSF11-HIS coated, IgG1 dilution series, anti-human antibody-HRP, TMB.
For assay [6] the target is unchanged. Briefly: IgG1 ELISA EC50 <0.02 nM.
For assay [7], the target named is human IGSF11 (VSIG3) expressed on cells (human) (UniProt Q5DX21). As to the kind of experiment: FACS <25% cells.
The target is the same in assay [8]. Briefly: FACS staining of COLO-741 cells (endogenous IGSF11).
The target is the same in assay [9]. As to the kind of experiment: FACS COLO-741.

B1: A-001 (scFv format) (scFv, V domains shown)
VH: EVQLVESGGGLVKPGGSLRLSCAASGFTFSSYSMNWVRQAPGKGLEWVSSISSSSSYIYYADSVKGRFTISRDNAKNSLYLQMNSLRAEDTAVYYCVRSIIVQALGITSVFDIWGQGTMVTVSS
VL: AIRLTQSPSSLSASVGDRVTISCRASQIISNHLNWYQQKPGKAPKLLIYAASRLQTGVPSRFSGSGSETDYTLTISSLQPEDFATYYCQQSYSNPRTFGHGTKVEIK
For B1, the binding entry with Streptavidin was “no binding (tested: <0.025 or <0.05 RFU)”; in assay [1] it was “binds”.

B2: A-016 (scFv format) (scFv, V domains shown)
VH: QVQLQESGAEVKKPGASVKVSCKASGYTFTGYYMHWVRQAPGQGLEWMGGIIPIFGTANYAQKFQGRVTITADESTSTAYMELSSLRSEDTAVYYCAGAGMELTRSGAYYYYGMDVWGQGTTVTVSS
VL: QSALTQPASVSGSPGQSITISCTGTSSDIGGYTFVSWYQQHPGKAPKVMIHDVNNRPSGISNRFSGSKSGNTASLTISGLQAEDEADYYCSSVTSTNTYVFGTGTKVTVL
For B2, the binding entry with Streptavidin is recorded as “no binding (tested: <0.025 or <0.05 RFU)”; in assay [1] it was “binds”.

B3: A-022 (IgG1 format) (antibody, V domains shown)
VH: EVQLLESGPGLVKPSQTLSLTCTVSGGSISSGGYYWSWIRQHPGKGLEWIGYIYYSGSTYYNPSLKSRVTISVDTSKNQFSLKLSSVTAADTAVYYCARASRSTDYYFDYWGQGTLVTVSS
VL: QPGLTQPPSMSYGLGQTATLTCTGNRNNIGDQGAAWLQQHQGHPPKLLSYRNNNGPSGISERLSASRSGNTASLTISGLQPEDEADYYCSAWDSSLRAWVFGGGTKLTVL
Turning to B3, in the assay with IGSF11-hFc (human), the binding entry is reported as “binds”.

B4: A-008 (scFv format) (scFv, V domains shown)
VH: QLQLQESGPGLVKPSETLSLTCTVSGGSISSSGYYWGWIRQPPGKGLEWIGSIYYSGSTYYNPSLKSRVTISVDTSKNQFSLKLSSVTAADTAVYYCARHRVRFGEFDAFDIWGQGTMVTVSS
VL: QAVLTQPPSVSGAPGERVTLSCTGTSSNVGADFDVHWYQQFPGTAPRLLIFGSDNRPSGVPDRFSGSKSGTSASLAITGLQVEDEADYYCQAYDVRLSGWVFGGGTKLTVL
With B4, the figures for the binding entry (in the assay with Streptavidin; in assay [2]) were “no binding (tested: <0.025 or <0.05 RFU)” and “binds”, respectively.

B5: A-034 (scFv format) (scFv, V domains shown)
VH: QMQLVQSGGGLVKPGGSLRLSCAASGFTFSSYTMNWVRQAPGKGLEWVSSISSIGTYIYYADSVKGRFTISRDNAKNSLYLQMNSLRAEDTAVYYCARVLLSGSYYGYFDSWGQGTLVTVSS
VL: QSVLTQPPSVSGAPGQRVTISCTGSSSNIGAGYDVHWYQQLPGTAPKLFIYGNSNRPSGVPDRFSGSKSGTSASLAITGLQAEDEADYYCQSYDSSLSGYVFGTGTKVTVL
Regarding B5, the binding result with Streptavidin was “no binding (tested: <0.025 or <0.05 RFU)”; in [3] it was “binds”; in assay [2] it was “binds”.

B6: A-014 (scFv format) (scFv, V domains shown)
VH: QVQLVQSGAEVKKPGASVKVSCKASGYTFNDYYIHWVRQAPGQGLEWMGWFNPSTGGANYAQKFQGRVTMTRDTSISTAYLEVSSLRSDDTAVYYCARGNSPDLDYWGQGTLVTVSS
VL: DIQMTQSPDSLTVSLGERATINCKSSQSLLHSSNNKNYLAWYQQRPGQPPKLLIYWASTRQSGVPDRFSGSGSGTDFTLTINSLQADDMAVYYCQQYYTTTPNTFGQGTKLEIK
For B6, the values for the binding entry (with Streptavidin; in assay [2]) were “no binding (tested: <0.025 or <0.05 RFU)” and “binds”, respectively.

B7: B-001 (chain-swapped IgG1) (antibody, V domains shown)
VH: EVQLLESGGGLIQPGGSLRLSCAVSGFTVSSNYMSWVRQAPGKGLEWVSVIYSGGSTYYADSVKGRFTISRDNSKNTLYLQMNSLRAEDTAVYYCARGNPYYYGDLQVNFDYWGQGTLVTVSS
VL: QAVVTQEPSLTVSPGGTVTLTCASSTGAVTSAYYPNWFQQKPGQAPRALIYSTSNKHSWTPARFSGSLLGGKAALTLSGVQPEDEADYYCLLYYGGAWVFGGGTKLTVL
Take B7: the binding entry in assay [4], in assay [5] and in assay [6] was “binds” throughout.

B8: A-006 (scFv format) (scFv, V domains shown)
VH: B7 VH with L5V, V24A
VL: B7 VL with A32G, A48P, E83D, D87E, A97D
With B8, the figures for the binding entry (in the assay with Streptavidin; in [2]) were “no binding (tested: <0.025 or <0.05 RFU)” and “binds”, respectively.

B9: A-012 (scFv format) (scFv, V domains shown)
VH: B7 VH
VL: B7 VL with A32G, D87E
For B9, the binding entry in the assay with Streptavidin is recorded as “no binding (tested: <0.025 or <0.05 RFU)”; in assay [7], “binds”.

B10: A-013 (IgG1 format) (antibody, V domains shown)
VH: B7 VH with L5V, V24A
VL: B7 VL
Regarding B10, in the assay with IGSF11-hFc (human), the binding entry is listed as “binds”.

B11: A-005 (scFv format) (scFv, V domains shown)
VH: B7 VH with L5V, V24A
VL: B7 VL with G16E, A32G, K41R, H57D, D87E
As for B11, the binding entry in the assay with Streptavidin is on record as “no binding (tested: <0.025 or <0.05 RFU)”; in [2], “binds”.

B12: A-012 (IgG1 format) (antibody, V domains shown)
VH: B7 VH
VL: B7 VL with A32G, D87E
As for B12, the binding entry with IGSF11-hFc (human) was “binds”.

B13: A-013 (scFv format) (scFv, V domains shown)
VH: B7 VH with L5V, V24A
VL: B7 VL
For B13, the results for the binding result (in the assay with Streptavidin; in assay [7]) were “no binding (tested: <0.025 or <0.05 RFU)” and “binds”, respectively.

B14: A-002 (scFv format) (scFv, V domains shown)
VH: B7 VH with L5V, V24A
VL: B7 VL with L20P, A23G, A32G, Y33N, Y34L, F64I, D87E
For B14, the binding result is given as “no binding (tested: <0.025 or <0.05 RFU)” with Streptavidin and “binds” in assay [7].

B15: A-035 (scFv format) (scFv, V domains shown)
VH: QVQLVQSGAEVKKPGASVKVSCKASGYTFTGYYMHWVRQAPGQGLEWMGWINPNSGNTGYAQKFQGRVTMTRNTSISTAYMELSSLRSEDTAVYYCARGRLERGYWYFDLWGRGTLVTVSS
VL: NFMLTQPHSVSESPGRTVTISCTRSSGSITSNYVQWYQQRPGSAPTILIYEDKERPSEVPDRFSGSIDISSNSASLTISGLKTEDEADYYCQSYGGTSQGVLFGGGTKVTVL
Take B15: the binding entry is “no binding (tested: <0.025 or <0.05 RFU)” in the assay with Streptavidin, “binds” in assay [3] and “binds” in [7].

B16: A-004 (scFv format) (scFv, V domains shown)
VH: EVQLVESGGGLVKPGGSLRLSCAASGFTFSSYSMNWVRQAPGKGLEWVSSISSSSSYIYYADSVKGRFTISRDNAKNSLYLQMNSLRAEDTAVYYCARGQLLWFGESALIDAFDIWGQGTMVTVSS
VL: EIVLTQSPSSLSASVGDRVTITCRASQSISSYLNWYQLKPGKAPKLLIYAASILQSGVPSRFSGSGSGTDFTLTISSLQPEDFAAYYCQQSYSTPRTFGQGTKLEIK
For the molecule B16, the binding result with Streptavidin was “no binding (tested: <0.025 or <0.05 RFU)”; in assay [1] it was “binds”.

B17: A-024 (IgG1 format) (antibody, V domains shown)
VH: QMQLVQSGAEVKKPGSSVKVSCKASGGTFSSYAISWVRQAPGQGLEWMGWISAYNGNTNYAQKLQGRVTMTTDTSTSTAYMELRSLRSDDTAVYYCASLGSYGYTGAFDIWGQGTMATVSS
VL: QSALTQPASVSGSPGQSITISCTGTSSDVGGYNYVSWYQQHPGKAPKLMIYEVSNRPSGVSNRFSGSKSGNTASLTISGLQAEDEADYYCSSYTSSSTLVVFGGGTKLTVL
As to B17, the binding result in assay [8] and in assay [9] was “binds” throughout.

B18: A-010 (scFv format) (scFv, V domains shown)
VH: QVQLVQSGAEVKKPGASVKVSCKASGYTFTSYGISWVRQAPGQGLEWMGWISAYNGNTNYAQKLQGRVTMTTDTSTSTAYMELRSLRSDDTAVYYCARVPAWSGQFDYWGQGTLVTVSS
VL: B17 VL with T25S, H41Y, E52D, S54R, N55S, S91T, S97N, V101I, L108V
Consider B18, for which the binding entry with Streptavidin is reported as “no binding (tested: <0.025 or <0.05 RFU)”; in assay [2], “binds”.
